Source: PubChem BioAssay AID912 (NCATS, 2007).

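Uptake of anthrax lethal toxin into cultured cells, read by FRET (460/530 nm ratio) and reported from the 460 nm channel; the cell line is not named here. Each compound was tested as a concentration series from about 0.0005 to 40 µM. The number is the fitted AC50 of the 460 nm signal alone; lower values mean a more potent effect. A falling signal goes with compounds filed as inhibitors or cytotoxic, a rising one with activators or fluorescent compounds (inferred from the filed classes).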

Values are in nM. Common to all entries: measured here: 460 nm channel. Part of the compounds only, not a random draw; the main read-out is not listed here. A potency from a partial, single-point or poor curve is only a rough figure. The first word of each remark tells which way the curve ran; it can be opposite to the aim of the assay.

compound	AC50 (nM)	curve as filed
CSc1cc2c(cc1C(F)(F)F)N(C(=O)Nc1cccnc1)CC2	12589	falling, single point
Cc1ccsc1CNn1cnnc1SCc1ccccc1F	5012	falling, single point
N[C@@H](C(=O)O)c1ccc(C(=O)O)c(C(=O)O)c1	12589	falling, single point
CCOC(=O)CS(=O)(=O)c1nc(-c2ccc(F)cc2)cc(C(F)(F)F)n1	5012	falling, full curve
CCC1SC2=NCCN2C1(O)c1ccc(Cl)cc1 (stereo not drawn)	10000	falling, partial curve, poor fit
Clc1ccc(-c2nc(-c3ccccn3)no2)cc1Cl	1585	rising, partial curve
O=C(CC(SCCO)c1ccc2c(c1)OCO2)c1ccco1 (stereo not drawn)	15.85	rising, full curve, poor fit
O=S(=O)(NCCCCCCc1ccccc1)c1cccc2c(Cl)cccc12	15848	falling, partial curve
CC(C)[C@@H]1C(=O)N(S(C)(=O)=O)[C@H]2CCN(C(=O)/C=C\CN3CCCCC3)[C@@H]12	31622	falling, single point
CCN(CC)CCNC(=O)Cn1nc(Cc2cccnc2)c2ccccc2c1=O	25118	rising, single point
CCOC(=O)c1c(C)[nH]c(C(=O)CN2C(=O)NC(C)(c3ccc(C)cc3)C2=O)c1C (stereo not drawn)	19952	falling, partial curve
COc1cccc2c1C(=O)c1c(O)c3c(c(O)c1C2=O)C[C@@](O)(C(C)=O)C[C@@H]3O[C@H]1C[C@H](N)[C@H](O)[C@H](C)O1	19952	falling, partial curve, poor fit
CNc1nc(-c2ccc(N(C)C)cc2)nc2ccccc12	31622	falling, single point
Cc1noc(C)c1COC(=O)CCCOc1ccc(Cl)cc1Cl	398.1	falling, partial curve
CC[C@]1(O)C[C@@H]2CN(CCc3c([nH]c4ccccc34)[C@](C(=O)OC)(c3cc4c(cc3OC)N(C)[C@H]3[C@](O)(C(=O)OC)[C@@H](C(=O)OC)[C@@]5(CC)C=CCN6CC[C@@]43[C@@H]65)C2)C1	251.2	falling, full curve
C=C(C)c1ccccc1	1995	falling, partial curve, poor fit
Cc1ccc(Cl)cc1N1CCN(C(=O)c2ccc(NS(=O)(=O)c3c(C)noc3C)cc2)CC1	12589	falling, partial curve
N#CCSc1nc2c(c(C3CC=CCC3)c1C#N)CCC2 (stereo not drawn)	31622	falling, single point
CCCCC#CC1C=CC(Oc2ccc(C(=O)OC)cc2)C(COC(=O)OCC)O1 (stereo not drawn)	1000	rising, single point
COCCn1c(=O)c(-c2ccccc2)nc2cnc(N3CCNCC3)nc21	10000	rising, partial curve
O=S(=O)(c1cccs1)N1CCN(Cc2nc3ccccc3s2)CC1	398.1	falling, full curve, poor fit
CCOC(=O)N1CCN(c2nc3c(c(=O)[nH]c(=O)n3C)n2Cc2ccccc2Cl)CC1	10	falling, full curve, poor fit
O=C(c1cccc(N2C(=O)C3CC=CCC3C2=O)c1)N1CCCCCC1 (stereo not drawn)	19.95	falling, full curve, poor fit
Cc1nc(-c2ccc(-c3ccc(C(=O)N4CCc5cc6c(cc54)C4(CCN(C)CC4)CO6)cc3)c(C)c2)no1	25118	falling, partial curve
Cc1cc(Cl)cc(C)c1OCCCCn1ccnc1	199.5	falling, full curve
CCCn1c(NC(=O)C2COc3ccccc3O2)nc2ccccc21 (stereo not drawn)	1000	falling, full curve
C=CCn1c(Cc2nc3ccc(Cl)cc3[nH]2)n[nH]c1=S	5012	falling, partial curve, poor fit
O=C(O)[C@H]1CCCC[C@@H]1C(=O)Nc1nc2ccccc2[nH]1	631	falling, single point
CC1CCCCC1NC(=O)Cn1c(CN2CCCCC2)nc2ccccc2c1=O (stereo not drawn)	6310	rising, partial curve
CC(Cc1ccccc1)C(=O)NCCc1c[nH]c2ccccc12 (stereo not drawn)	12589	falling, partial curve, poor fit
CCCn1c(C)cc(C(=O)COC(=O)c2ccc(Cl)c(S(=O)(=O)N3CCCC3)c2)c1C	10000	falling, partial curve
CCOc1ccc2nc3ccc4[nH]onc4c3c2c1	10000	rising, partial curve
COc1ccc(OC)c(NC(=O)C23CCC(C)(C(=O)C2)C3(C)C)c1 (stereo not drawn)	15848	rising, partial curve
CCCN1CCO[C@@H]2c3cc(O)ccc3OC[C@H]21	12589	falling, single point
Cc1cc(NC(=O)CSc2nc3ccccc3c(=O)n2C2CCCC2)no1	3981	falling, full curve, poor fit
COc1cc2nc(N3CCN(C(=O)[C@@H]4COc5ccccc5O4)CC3)nc(N)c2cc1OC	1259	falling, single point

Some entries from above, unchanged:

compound	AC50 (nM)	curve as filed
CNc1nc(-c2ccc(N(C)C)cc2)nc2ccccc12	31622	falling, single point
COc1cccc2c1C(=O)c1c(O)c3c(c(O)c1C2=O)C[C@@](O)(C(C)=O)C[C@@H]3O[C@H]1C[C@H](N)[C@H](O)[C@H](C)O1	19952	falling, partial curve, poor fit
O=C(CC(SCCO)c1ccc2c(c1)OCO2)c1ccco1 (stereo not drawn)	15.85	rising, full curve, poor fit
Cc1cc(NC(=O)CSc2nc3ccccc3c(=O)n2C2CCCC2)no1	3981	falling, full curve, poor fit